Test results taken from the supplement of paper PMC11237882.
Some of the results follow. Values are worked out from sequencing counts and are noisy.

T1: Homer1 EVH1 domain
T1 chain: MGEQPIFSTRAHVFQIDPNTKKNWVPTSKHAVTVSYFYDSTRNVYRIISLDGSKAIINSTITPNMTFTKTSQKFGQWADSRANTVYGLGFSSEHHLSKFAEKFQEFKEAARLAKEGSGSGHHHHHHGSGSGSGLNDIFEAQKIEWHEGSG


Molecular target: T1, Homer1 EVH1 domain
Experiment: enrichment score (AUC of log2 frequency ratio across FACS sorting rounds) (log2 AUC); higher = stronger enrichment for Homer1 EVH1 binding

Binder | enrichment score
QGMFIFLFLCVLSRKIQEEYYRLFKNVPCCFGCLSC | 0.373
LIGEYLHLAFYYFLLVLYILCSFLSYCLLLWLGSFL | 2.62
EFYAVTGFPYPTTGTAVAYRGPHLRGRGRAVYNTFR | -0.382
ERSGLSEWLGNKLTPLQSVPAPALAIILSLLVATFT | 3.17
VPTPTPPSKSGSLLDSDNFIGLFVFVLCLLYSSIRT | -2.29
IVGFAIMFFIIFFAYAQLGFLVFGSQVDDFSTFQNS | -0.48
MGPPSLVLCLLSATVFSLLGGSSAFLSHHRLKGRFQ | -0.399
VMAYDRYIAISQPLRYVTIMNTQLCVGLVVAAWVVI | 3.46
EYLELRFNKCVRLCGTVLFIVQTILYTGIVIYAPAL | -0.609
IFVLDYLIIFISYVLILKTVLSIASREERAKALITC | 2.67
RGRATGITGNFANIGGALASLVMILSIYSRTLPWII | 1.73
ASLLLSALLLGCLVALGVQYHRDPSHSTCLTEACIP | -1.16
MGAGLSWYHGVMGLLHPQPIESLLWAYCILAGSLVS | 0.835
VTSLGKYIFASILGHVIHGGIVLPLIYFVFTRKNPF | -2.26
SEERRRPHKEEEEEAYYPPAPPPYSETDSQASRERR | 5.64
VKDRTISFLGCVVQFFFFCTFVVTESFLLAVMAYDL | 1.28
ERTSEETIRIYSLRLFLNCIVLAVLGACFYAIYVAT | 2.59
TNYPLMMLTAGLLISNCLCHFFIFPWCQPCLHIRAA | 2.37
EPSSETGNPRHLHVLIGTSVVKLPFTILLFFLLHRW | 1.17
LSRTSTALPADSYQIGAIAGIIILVLVVLFLLALFI | 4.69
MKANYSAEERFLLLGFSDWPSLQPVLFALVLLCYLL | 1.4
MALERLCSVLKVLLITVLVVEGIAVAQKTQDGQNIG | 0.166

Binder | enrichment score
RLYEKDWASNASSGLTAQARIIMLIVIAPIICSLSW | 0.0545
KGDVGVGTIVGSAVFNILCIIGVCGLFAGQVVALSS | 2.74
DGSSFSGRVFRVTFLMLAVSLTVPLLGAMMLLESPI | 1.83
LTSSNTENSPWIRNVIPALLANTCLLVVVAAAASVA | 4.61
MVAATVAAAWLLLSAAACAQQEQDFYDFKAVNIRGK | 4.52
REEWQYVFLIASLVHYGGVIFYGVFASGEKQPWAEP | -1
QVLKRHRKLFTFGVTFSTFLLALFYITKGGIYVLTQ | -0.035
HAFSAGLGGAIGYVLGGLDWTQTFLGSWFRTQNQVL | 1.75
DHKFIENIGYVLYGIYNVTMVVVLLTMLIAMITSSY | 3.69
ILIPIIVGAGLSGLIIVIVIAYVIGRRKSYAGYQTL | 1.28
MPGKMVVILGASNILWIMFAASQAFKIETTPESRYL | 2.58
RVSFLGLDLDAQQARVGQWLLLFLGIALLVATLGLS | 2.31
CGACAALGALTASGLLLCLVPWSLRITWMGAHGAGV | -0.532
QQPEPVLGLGSVEQPHEVPSVLGTPLLQPPENFAKG | 1.77
YRMYWFTNFLYDMLFYLVSVCLCVAVIVAFQLTAFT | 2.94
YRPPRYQIAIRACFLGFVFGCGTLLSFSQSSRSHFG | 1.85
NSIAATEAEARIFWLGLIICPMIWIVFFFSTLFSLK | 3.59
YVLLSSSVSFYLPLLVMLFVYARVFVVATRQLRLLG | 3.14
RVRLPGIPHAARNPTHSYSVRLPRKGCSAVAALVRQ | 2.14
IAVAMGIRFIIMVAIWSAVFLNSLFNQEVQIPLTES | 0.43
AENSGTTVVYNPYAALSIEQQRQKLPVFKLRNHILY | -0.593
QLKKIFQEYGTVGVSLHIGISLISLGIFYMVVSSGV | 0.986
